Reference: PubChem BioAssay AID1259405 (NCATS, 2018)

- Aim: 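Knock-downs that lift recombinant protein yield in hamster ovary cells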 (primary screen)
- Cell system: Chinese hamster CHO-K1 ovary cells with stable secreted eGFP expression
- Knock-down reagent: single siRNA against mouse genes, 0.8 pmol siRNA per well (2 µl of 400 nM stock)
- Timing: 3 days
- Detection: 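Percent of the per-plate non-targeting control median for intracellular GFP per well by laser scanning cytometry and for cell viability by ATP luminescence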
- Reading the numbers: GFP, % of control: higher = more GFP per well, higher productivity; viability (ATP), % of control: higher = more viable cells (more ATP)
- Hit rule: 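a knock-down is called active if GFP reaches 120% or more of non-targeting control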
The deposit covers about 50,000 reagents; below is an unselected part. About 4,000 of them (8%) were called active. 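Mouse siRNA library applied to hamster cells; one well for each siRNA.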

GFP, % of control | viability (ATP), % of control | Call | Gene | PubChem SID
83.1 | 69.8 | inactive | Ift70a1 (intraflagellar transport 70A1) | SID363542587
80.9 | 79.9 | inactive | Ift70a1 (intraflagellar transport 70A1) | SID363552078
51.4 | 81.6 | inactive | Ift70a1 (intraflagellar transport 70A1) | SID363559683
93.1 | 106 | inactive | Aoc3 (amine oxidase, copper containing 3) | SID363568904
67 | 55.9 | inactive | Aoc3 (amine oxidase, copper containing 3) | SID363576296
64.5 | 70.4 | inactive | Aoc3 (amine oxidase, copper containing 3) | SID363579112
110 | 93.1 | inactive | Bmx (BMX non-receptor tyrosine kinase) | SID363547362
103 | 74.4 | inactive | Bmx (BMX non-receptor tyrosine kinase) | SID363558131
82.3 | 70.5 | inactive | Bmx (BMX non-receptor tyrosine kinase) | SID363559889
95.6 | 71.7 | inactive | Tmem216 (transmembrane protein 216) | SID363543896
46.6 | 32.7 | inactive | Tmem216 (transmembrane protein 216) | SID363551632
95.6 | 68.1 | inactive | Tmem216 (transmembrane protein 216) | SID363559237
64.6 | 53.8 | inactive | Slc25a25 | SID363545732
87.2 | 89.3 | inactive | Slc25a25 | SID363549245
94.8 | 62.4 | inactive | Slc25a25 | SID363563051
62.8 | 78.1 | inactive | Zfp760 (zinc finger protein 760) | SID363555222
79.5 | 59.2 | inactive | Zfp760 (zinc finger protein 760) | SID363563883
70.4 | 85.9 | inactive | Zfp760 (zinc finger protein 760) | SID363587429
72.7 | 77.2 | inactive | Pced1b (PC-esterase domain containing 1B) | SID363562063
85.7 | 48.3 | inactive | Pced1b (PC-esterase domain containing 1B) | SID363567201
124 | 59.7 | active | Pced1b (PC-esterase domain containing 1B) | SID363584558
48.7 | 61.1 | inactive | Lrsam1 (leucine rich repeat and sterile alpha motif containing 1) | SID363540270
58.4 | 58.7 | inactive | Lrsam1 (leucine rich repeat and sterile alpha motif containing 1) | SID363542022
82.5 | 79.8 | inactive | Lrsam1 (leucine rich repeat and sterile alpha motif containing 1) | SID363566938
119 | 81.5 | inactive | Epb41l5 (erythrocyte membrane protein band 4.1 like 5) | SID363540106
86.5 | 61.5 | inactive | Epb41l5 (erythrocyte membrane protein band 4.1 like 5) | SID363561407
89.6 | 92.2 | inactive | Epb41l5 (erythrocyte membrane protein band 4.1 like 5) | SID363564443
58.4 | 73.4 | inactive | Zfp644 (zinc finger protein 644) | SID363555412
59.1 | 82.5 | inactive | Zfp644 (zinc finger protein 644) | SID363564073
99.1 | 93.9 | inactive | Zfp644 (zinc finger protein 644) | SID363587619
105 | 116 | inactive | Gnaz (guanine nucleotide binding protein, alpha z subunit) | SID363570115
115 | 96.6 | inactive | Gnaz (guanine nucleotide binding protein, alpha z subunit) | SID363576451
73 | 63.4 | inactive | Gnaz (guanine nucleotide binding protein, alpha z subunit) | SID363579619
95.9 | 54.5 | inactive | 9430015G10Rik (RIKEN cDNA 9430015G10 gene) | SID363542932
56.7 | 73.6 | inactive | 9430015G10Rik (RIKEN cDNA 9430015G10 gene) | SID363546449
107 | 83.5 | inactive | 9430015G10Rik (RIKEN cDNA 9430015G10 gene) | SID363548205
113 | 66.6 | inactive | Zfp512 (zinc finger protein 512) | SID363573685
83.6 | 82.2 | inactive | Zfp512 (zinc finger protein 512) | SID363581429
107 | 102 | inactive | Zfp512 (zinc finger protein 512) | SID363583893
84 | 48.6 | inactive | Or8k3b (olfactory receptor family 8 subfamily K member 3B) | SID363554334
140 | 111 | active | Or8k3b (olfactory receptor family 8 subfamily K member 3B) | SID363567781
71.6 | 119 | inactive | Or8k3b (olfactory receptor family 8 subfamily K member 3B) | SID363585138
81.7 | 67.5 | inactive | Or1j1 (olfactory receptor family 1 subfamily J member 1) | SID363554130
106 | 83.1 | inactive | Or1j1 (olfactory receptor family 1 subfamily J member 1) | SID363567577
59.9 | 93.4 | inactive | Or1j1 (olfactory receptor family 1 subfamily J member 1) | SID363584934

Targets above whose target name starts with B or b (3):
GFP, % of control | viability (ATP), % of control | Call | Gene | PubChem SID
110 | 93.1 | inactive | Bmx (BMX non-receptor tyrosine kinase) | SID363547362
103 | 74.4 | inactive | Bmx (BMX non-receptor tyrosine kinase) | SID363558131
82.3 | 70.5 | inactive | Bmx (BMX non-receptor tyrosine kinase) | SID363559889

The listing continues.
GFP, % of control | viability (ATP), % of control | Call | Gene | PubChem SID
95.8 | 87.3 | inactive | Nalf1 (NALCN channel auxiliary factor 1) | SID363546526
82.7 | 76.3 | inactive | Nalf1 (NALCN channel auxiliary factor 1) | SID363548282
67.6 | 72.2 | inactive | Nalf1 (NALCN channel auxiliary factor 1) | SID363560460
68.4 | 78.3 | inactive | Pot1b (protection of telomeres 1B) | SID363543940
55.5 | 43.4 | inactive | Pot1b (protection of telomeres 1B) | SID363551676
95.3 | 88.2 | inactive | Pot1b (protection of telomeres 1B) | SID363559281
84.5 | 80.4 | inactive | Phykpl (5-phosphohydroxy-L-lysine phospholyase) | SID363545212
57.6 | 74.2 | inactive | Phykpl (5-phosphohydroxy-L-lysine phospholyase) | SID363548725
51.8 | 49.8 | inactive | Phykpl (5-phosphohydroxy-L-lysine phospholyase) | SID363562531
121 | 59.4 | active | Avpr1b (arginine vasopressin receptor 1B) | SID363571114
82.4 | 66.4 | inactive | Avpr1b (arginine vasopressin receptor 1B) | SID363571466
57.7 | 69.9 | inactive | Avpr1b (arginine vasopressin receptor 1B) | SID363571818
127 | 72.6 | active | Or5p1 (olfactory receptor family 5 subfamily P member 1) | SID363544523
110 | 77.5 | inactive | Or5p1 (olfactory receptor family 5 subfamily P member 1) | SID363550851
63.6 | 72.3 | inactive | Or5p1 (olfactory receptor family 5 subfamily P member 1) | SID363557400
64.1 | 65.7 | inactive | Esyt2 (extended synaptotagmin-like protein 2) | SID363550108
82.6 | 59.4 | inactive | Esyt2 (extended synaptotagmin-like protein 2) | SID363564617
78.9 | 75.4 | inactive | Esyt2 (extended synaptotagmin-like protein 2) | SID363588162
126 | 89 | active | Tenm2 (teneurin transmembrane protein 2) | SID363568921
109 | 105 | inactive | Tenm2 (teneurin transmembrane protein 2) | SID363576313
21.1 | 20.8 | inactive | Tenm2 (teneurin transmembrane protein 2) | SID363579129
115 | 106 | inactive | Ascc1 (activating signal cointegrator 1 complex subunit 1) | SID363570048
108 | 95.1 | inactive | Ascc1 (activating signal cointegrator 1 complex subunit 1) | SID363576384
65.2 | 73.4 | inactive | Ascc1 (activating signal cointegrator 1 complex subunit 1) | SID363579552
89.3 | 111 | inactive | Dbx1 (developing brain homeobox 1) | SID363545895
72.5 | 74.3 | inactive | Dbx1 (developing brain homeobox 1) | SID363549408
89.3 | 71.6 | inactive | Dbx1 (developing brain homeobox 1) | SID363563214
99.8 | 60 | inactive | Sh3bp5 (SH3-domain binding protein 5 (BTK-associated)) | SID363554964
74.8 | 74.8 | inactive | Sh3bp5 (SH3-domain binding protein 5 (BTK-associated)) | SID363568411
90.4 | 86.1 | inactive | Sh3bp5 (SH3-domain binding protein 5 (BTK-associated)) | SID363586470
90.1 | 56.4 | inactive | Rab5c (RAB5C, member RAS oncogene family) | SID363541646
77.7 | 74.3 | inactive | Rab5c (RAB5C, member RAS oncogene family) | SID363553238
35.7 | 54.2 | inactive | Rab5c (RAB5C, member RAS oncogene family) | SID363566562
41.7 | 89.4 | inactive | Sprr1b (small proline-rich protein 1B) | SID363556434
116 | 118 | inactive | Sprr1b (small proline-rich protein 1B) | SID363586884
83.8 | 88.4 | inactive | Sprr1b (small proline-rich protein 1B) | SID363588992
119 | 86.2 | inactive | Abcg5 (ATP binding cassette subfamily G member 5) | SID363574661
28.9 | 36.8 | inactive | Abcg5 (ATP binding cassette subfamily G member 5) | SID363575717
91.4 | 75.1 | inactive | Abcg5 (ATP binding cassette subfamily G member 5) | SID363580293
104 | 91 | inactive | Map1lc3b (microtubule-associated protein 1 light chain 3 beta) | SID363572365
81.6 | 85 | inactive | Map1lc3b (microtubule-associated protein 1 light chain 3 beta) | SID363574125
54.4 | 49.2 | inactive | Tspan14 (tetraspanin 14) | SID363541413
75.7 | 89.7 | inactive | Tspan14 (tetraspanin 14) | SID363556040
67.3 | 75.1 | inactive | Tspan14 (tetraspanin 14) | SID363566329
87.4 | 123 | inactive | Parp11 (poly (ADP-ribose) polymerase family, member 11) | SID363552330
75.2 | 99 | inactive | Parp11 (poly (ADP-ribose) polymerase family, member 11) | SID363585466
85.5 | 120 | inactive | Parp11 (poly (ADP-ribose) polymerase family, member 11) | SID363585817
112 | 103 | inactive | Astn1 (astrotactin 1) | SID363546669
63.6 | 101 | inactive | Astn1 (astrotactin 1) | SID363548425
25.4 | 38.8 | inactive | Astn1 (astrotactin 1) | SID363560603
49.7 | 58.9 | inactive | Ivns1abp (influenza virus NS1A binding protein) | SID363540432
65.3 | 47.6 | inactive | Ivns1abp (influenza virus NS1A binding protein) | SID363542184
62 | 57.7 | inactive | Ivns1abp (influenza virus NS1A binding protein) | SID363567100
53.8 | 70.8 | inactive | Eppin (epididymal peptidase inhibitor) | SID363573144
74.2 | 67.4 | inactive | Eppin (epididymal peptidase inhibitor) | SID363577720
145 | 105 | active | Eppin (epididymal peptidase inhibitor) | SID363581240
140 | 85 | active | Cd86 (CD86 antigen) | SID363544086
46.1 | 58 | inactive | Cd86 (CD86 antigen) | SID363550414
69.6 | 75.4 | inactive | Cd86 (CD86 antigen) | SID363556963
140 | 76.2 | active | Unc5b (unc-5 netrin receptor B) | SID363568843
115 | 81.8 | inactive | Unc5b (unc-5 netrin receptor B) | SID363576235
87.7 | 80.9 | inactive | Unc5b (unc-5 netrin receptor B) | SID363579051
